Test results as given in PubChem BioAssay AID1347423 (Functional Genomics Laboratory (NCATS/FGL), 2020).
In all, about 52,000 sequences went through this assay and about 210 (0.4%) were called active.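 The calls were made as follows: active = gene whose silencing raises cell survival under the drug, median off-target-corrected z-score across its silencing RNAs 2 or more; inactive = the rest.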 This is one part of the list.

experiment: Resistance to Poly (ADP-Ribose) Polymerase inhibitor: Gene Identification via Genome-wide siRNA Screen; details: mouse BRCA2 R2336H ES cells, olaparib, CellTiter-Glo viability; stronger effect = higher value
How it was run: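 Mouse BRCA2 R2336H ES cells were reverse-transfected with siRNA (20 nM final), treated at 48 h with 500 nM olaparib, and read by CellTiter-Glo after 72 h. Scores: MAD-based z per siRNA, median per gene, seed off-target correction.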

Sequence	z-score
GGACAUUGAGAUUUAGCCATT against Kcnc2	inactive: -0.588
UAGGAACGCACCCAUACAATT against Mtvr2	inactive: -0.36
GGUCCUGAUGAAUACAUACTT against Asb10	inactive: -1.26
GGGACAGCUUUUGUGACUCTT against 1300006N24Rik	inactive: -0.602
CGAACAUGAGUGGAUUGUCTT against 1700010A17Rik	inactive: -0.426
GGUGCUAAUCAUCAUCAUGTT against 2610109H07Rik	inactive: -0.33
GGAAAUGUACUGUGCCUGGTT against Ogdh	inactive: -1.62
GCUCAAUGUGACAGUGGUGTT against NE	inactive: 0.295
GCAUGCUGACAUUAAAGUGTT against 9130020L07Rik	inactive: 0.17
GCUUUUUGACUACGUAGCCTT against BC016235	inactive: 0.932
GGGAAACACAGAUUUCUUUTT against Igsf4c	inactive: 0.467
GGAGGACCCUAUGUCUAAUTT against Adora1	inactive: 2.75
ACCUGAAUUUGGUGACUGATT against AY053573	inactive: -0.243
GGAAUUGUAGAAAGUGUUGTT against Adh4	inactive: -0.776
GGAUUGAAAAGAAUAUGCUTT against Tdrd7	inactive: 1.12
GGGCGAGGCCAAUUUCUUCTT against 2410006F12Rik	inactive: -2.11
GGCGAAGCUUGAAGAACAUTT against Kpnb3	inactive: 0.4
GGUGAUUUGGCUUCUGCACTT against Sp3	inactive: -1.79
GGCUUGAUGAAGAGAAUAUTT against Oog4	inactive: -0.145
GCUGUUCAAUUUGAUUACUTT against Dapp1	inactive: -0.407
GGAACAGUUACUUGAGAGUTT against A730012O14Rik	inactive: -0.573
GGCGGUCUUUAAGAUGCUCTT against 2300004C15Rik	inactive: -0.459
CCUUAGAUGAAAUUAGACATT against 2700087I09Rik	inactive: 1.24
GUGUUUUACCAUUGGACAUTT against Klra20	inactive: -0.576
CCGUAAAACCAUGAAGAAGTT against Pdzk4	inactive: -1.41
GGAACUUCCAGAGAUGAGUTT against Bmp2	inactive: 0.982

Sequence	z-score
GGAUGCAGACCAGAACUACTT against C1ql1	inactive: 0.1
GGCAAGCUACAAGUUAGUCTT against AB041661	inactive: -0.904
GGAGACUGAAGAAGAAUAUTT against Lpin2	inactive: -1.16
GCACAAAUUUGGUAGUGUUTT against Nup50	inactive: 0.51
GGAACUUCCUGUUCAGAAATT against 1810022C23Rik	inactive: -0.742
GCAUACAAAUGCACAUUGATT against D16Bwg1547e	inactive: -1.45
GGAAUUUGUGGAAACAGGATT against Tnfaip3	inactive: 0.558
CCUUCAGCUAUCUAACUUCTT against 5730521E12Rik	inactive: 0.528
GGUUUACCCAAAGAACUCGTT against Snap29	inactive: 2.33
CCAGCUUACCUUUGAAAAATT against Dusp12	inactive: 0.456
GCUGUUGGAUCCUUUCCUATT against Slc25a26	inactive: -1.06
GGAUACCAAGCAUCGGAAGTT against Tcfap2e	inactive: -0.809
CGAGGAUGACUUGAUGACCTT against Gm996	inactive: 2.52
CCUGGCUAUUAGAUCGCGUTT against Kif12	inactive: 1.07
GGCAUCAUCGAUGUUUAUGTT against Pte2b	inactive: -0.138
CGUACAAAUAUGAUUCGAATT against 9530014D17Rik	inactive: 0.231
GGACCACAUUUUAUGUUGUTT against Rg9mtd3	inactive: -0.107
GCUCGGAAAACUGGCACUATT against Psmb7	inactive: -3.53
GGAUCAUCAAAACUGACUATT against Sema3d	inactive: 2.78
GGAUAGAAACAUUUCUGUGTT against Olfr1145	inactive: 0.774
GGCACUCCAUGGAAAUUAGTT against 4831416G18Rik	inactive: -1.25
GGCUGUGGAUAAUAAACAUTT against V1rg11	inactive: 0.745
GGUUAUUUAUGCCCUCAAUTT against AB041544	inactive: 0.815
GCUAUGUUAGGAGAAAUGCTT against Copb1	inactive: 1.63
GGCAAACAGGUUGAUCGUGTT against 1700123K08Rik	inactive: 0.837
GGCCGGAGAAAUCAUUGAGTT against Nme7	inactive: -0.896

Some values from the results shown:
z-score, GGCAAGCUACAAGUUAGUCTT against AB041661 reads inactive: -0.904
z-score, GGAACUUCCUGUUCAGAAATT against 1810022C23Rik reads inactive: -0.742

Quoted at random: three records from the list
Sequence	z-score
GGAAAUGUACUGUGCCUGGTT against Ogdh	inactive: -1.62
GGAUUGAAAAGAAUAUGCUTT against Tdrd7	inactive: 1.12
GGAAUUGUAGAAAGUGUUGTT against Adh4	inactive: -0.776

A different layout for part of the listing above:
Sequence | z-score
CGUACAAAUAUGAUUCGAATT against 9530014D17Rik | inactive: 0.231
GGACCACAUUUUAUGUUGUTT against Rg9mtd3 | inactive: -0.107

(cont.)

Sequence	z-score
GGCCCAGGAAGAAACAUGUTT against Tff1	inactive: -1.07
CCUAUGUCAUCAUUGGAGUTT against 2310005G13Rik	inactive: 0.537
CGGUGUCAUCAGUUGCUUATT against 4930432B04Rik	inactive: -2.04
CCUCAUUCUCAUUACGACATT against Acp6	inactive: 0.329
GGCAGCAUUUGUUCUUUUATT against Zfpn1a1	inactive: 0.342
GGAAAAAAGAGUCACUUCCTT against Rag1	inactive: 2.85
GGAAACGAUGCAAGAACCCTT against Zp3r	inactive: -1.4
GGCCUGGCAUGAACAUAAATT against Atf5	inactive: -1.1
GGAAGAAUCGCUGCUACCGTT against Mrpl20	inactive: 1.16
GGAUGUCUACUGGAAUGUUTT against D430024F16Rik	inactive: -2.14
GGAAUUUCGGGACAAAAUUTT against Olfr654	inactive: -0.213
AGAGAGAAAUGGUAGCGUATT against Oog2	inactive: 0.705
GGUGGAAUGAAAUAUGAAGTT against Ptp4a1	inactive: 0.0271
GGGAAGAAAAGAAGUAUGUTT against Atp10a	inactive: 0.357
GUCCUGCACUUUUUGGCUCTT against Olfr1223	inactive: -0.59
GGAAGCACAUCAAUAGGGCTT against Olfr828	inactive: 0.899
GGAACUUUCUGAAGAAACATT against Oasl2	inactive: -1.08
GCUACUCUACUGGUUCUUATT against Pltp	inactive: -0.867
GCCUUUCGUGGUGUCAGCUTT against Chst2	inactive: 0.699
GAUGCUCAUCAAUAUCGUATT against Olfr1109	inactive: -0.288
GGAAAGGCUCGGCUUUUGATT against Ormdl2	inactive: -2.81
GGGUUUGCAUCACUUUGUUTT against Olfr1245	inactive: -0.25
GGAUGAUUUCCAGAGAGUATT against Rdh5	inactive: -1.33
GCAGGAAAGAGUUCAACAGTT against Ian1	inactive: -0.518
GGCAAAUUAGCUAGUAUCATT against Rai2	inactive: -1.28
GGUAAUCUUUCAGUUACCCTT against Six4	inactive: 0.0146

Sequence	z-score
GGUGAUGUGGAAGCAUUUGTT against Adrm1	inactive: -2.06
GGAACACUGGAACUAUUUUTT against Sipa1l1	inactive: -1.16
GGGAAAGAAGCAAAACUUUTT against 3830421F13Rik	inactive: 1.35
GGAAGAGGCUGAAGUAAAATT against Brd8	inactive: -2.23
CCACAAAUACAAAUCUACCTT against Bloc1s3	inactive: -0.433
GGAUUCUCUACCUUACCAUTT against 2810423E13Rik	inactive: -0.387
GGGAGAAGUAAGUGUUAUCTT against Npy2r	inactive: 2.15
UAAAUACUUACCAGCUGGATT against Olfr1306	inactive: -0.725
CCUUCAGAAAGUUGUUGAATT against Commd5	inactive: -0.987
GGAGUUUGCCACAAUUGUUTT against 2810408E11Rik	inactive: -1.26
GGCCUGGAGGAGCUAUAUUTT against Nrl	inactive: -0.0154
GCAAAAUCUCAAAUUGCUCTT against Mdh1	inactive: 0.0536
GGAAAGAAGAACCAAGCUCTT against Med6	inactive: -1.98
GGAAACAAGAAGAACGAUGTT against Camk2a	inactive: 0.214
GGUAUGAGAUUACCUUCACTT against 1700037H04Rik	inactive: 0.702
CCUUGGGACAAGCAUAUAUTT against Psg25	inactive: -2.48
CCAUCUGAUUAAUGGCUUCTT against Tm7sf2	inactive: -1.81
GGGACCACCUUGAACACUATT against 2310046K01Rik	inactive: -1.17
GGCCAAAGGAUUUCUUAUCTT against Ndufa6	inactive: 0.941
GGAACAAGGAUGCUCAUACTT against Ankmy1	inactive: -0.397
GCUACUACCUGGCAGUUAGTT against Cyp4b1	inactive: 0.415
GGAACACAGGUUAAGAAGGTT against Eif2b5	inactive: 1.28
GGUCCUUCACAGUUAUGUGTT against 2810405F18Rik	inactive: -1.06
GGUCUUAGAAGAUUUUUCUTT against Adam21	active: 2.43
CGAUGAAUCAGUGAGGCUGTT against Wdr18	inactive: -1.94
GCUUGGAUUGGUAACCUGUTT against Olfr167	inactive: -0.315
